All values are in %. The controls that fix the scale are not given in the record; negative values are as filed. This is an unselected part of the compounds tested.

By UniProt entry, the sequences of proteins in these tests, tags left out.
UniProt E9BF75, entry or part of it: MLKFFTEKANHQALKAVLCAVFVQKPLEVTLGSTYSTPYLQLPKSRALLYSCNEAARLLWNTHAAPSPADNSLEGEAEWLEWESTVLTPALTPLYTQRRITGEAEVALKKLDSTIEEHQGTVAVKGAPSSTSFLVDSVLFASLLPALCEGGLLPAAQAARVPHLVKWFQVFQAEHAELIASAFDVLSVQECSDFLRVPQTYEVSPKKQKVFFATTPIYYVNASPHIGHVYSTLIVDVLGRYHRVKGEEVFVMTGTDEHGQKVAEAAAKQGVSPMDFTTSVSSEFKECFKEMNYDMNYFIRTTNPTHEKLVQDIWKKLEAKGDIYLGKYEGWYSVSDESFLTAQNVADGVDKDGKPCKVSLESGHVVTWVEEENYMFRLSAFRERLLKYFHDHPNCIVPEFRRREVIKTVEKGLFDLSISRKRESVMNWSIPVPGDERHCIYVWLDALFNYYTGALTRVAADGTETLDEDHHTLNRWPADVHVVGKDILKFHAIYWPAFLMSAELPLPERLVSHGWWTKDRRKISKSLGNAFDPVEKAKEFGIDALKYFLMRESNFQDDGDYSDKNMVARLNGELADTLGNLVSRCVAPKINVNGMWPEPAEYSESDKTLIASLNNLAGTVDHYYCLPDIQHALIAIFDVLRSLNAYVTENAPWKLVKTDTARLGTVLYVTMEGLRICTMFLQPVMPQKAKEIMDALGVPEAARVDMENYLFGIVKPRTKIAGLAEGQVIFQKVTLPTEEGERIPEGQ

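Methionyl-tRNA synthetase (putative), Leishmania donovani (UniProt E9BF75). Primary screen of methionyl-tRNA synthetase; the read-out is not stated. The test concentration is not given. The values are filed as inhibition. About 68,000 compounds were tested under these conditions; 0.035% (about 24) showed 50% or more at least once.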

{"smiles": "Cc1nc(C2CCCN(C(C)C)C2)sc1Br", "stereo": "stereo unspecified", "inhibition": 12.07}
{"smiles": "O=C(CC1CCCC1)N1C[C@@H]2C[C@H]1CN2", "inhibition": 1.111}
{"smiles": "Cc1ccccc1C(=O)Nc1ccc([C@H]2OCC(=O)N(C)[C@@H]2CO)cc1", "inhibition": 13.9}
{"smiles": "CC[C@H]1CN2CC[C@H]1C[C@@H]2CNC(=O)Nc1cccc(C(F)(F)F)c1", "inhibition": 11.54}
{"smiles": "Cc1ccc(-c2cc(C(=O)N(C)Cc3noc4c3CCCC4)[nH]n2)o1", "inhibition": 16.1}
{"smiles": "Cc1nn(C)c(C)c1C1CCCN1C(=O)c1ccc2nnc(C)n2c1", "stereo": "stereo unspecified", "inhibition": 23.81}
{"smiles": "CCNC(=O)[C@@H]1C[C@H](N)CN1c1cc(CC)nc(N(C)C)n1", "inhibition": 14.8}
{"smiles": "CNC(=O)N1C[C@H]2C[C@H](C(=O)NCc3cccnc3)[C@@H](C1)O2", "inhibition": 9.15}
{"smiles": "CCc1cnc(N2CC[C@H]3[C@@H]2CCC(=O)N3c2cccnc2)nc1", "inhibition": 12.99}
{"smiles": "Cc1nc(C2CCN(C(=O)c3ccnn3C)CC2)c2sccn12", "inhibition": 14.12}
{"smiles": "COCCN1CCCC2(CCN(c3nccnc3N(C)C)C2)C1=O", "stereo": "stereo unspecified", "inhibition": 9.278}
{"smiles": "CC(C)c1noc(CS(=O)(=O)CC(=O)NCCOc2ccccc2)n1", "inhibition": 6.15}
{"smiles": "Cc1cccc(-c2nc(N)nc3c2CN(C(=O)c2ccncn2)C3C)c1", "stereo": "stereo unspecified", "inhibition": 15.01}
{"smiles": "COc1cccc(C(=O)N2CC[C@@H]3[C@H](CC2)N(C)CCS3(=O)=O)c1", "inhibition": 3.093}
{"smiles": "Cn1cc(C2CCCN2C(=O)COCCOc2ccccc2)cn1", "stereo": "stereo unspecified", "inhibition": 20.11}
{"smiles": "CS(=O)(=O)c1nnc(NC(=O)CCc2ccc(Cl)s2)[nH]1", "inhibition": 6.425}
{"smiles": "O=c1c(S(=O)(=O)N2CCCCC2)cccn1Cc1cccnc1", "inhibition": 9.651}
{"smiles": "O=C(CO)N1CCc2onc(Cn3cccn3)c2C1", "inhibition": 13.3}
{"smiles": "CNc1cc2c(nn1)CCN(C(=O)c1ccc(-n3cccn3)nc1)C2", "inhibition": 20.43}
{"smiles": "O=C(NCc1nnc2n1CCC2)c1cn(-c2ccccc2Br)nn1", "inhibition": 4.762}
{"smiles": "Cc1nn(C)c2c(N3CCN(C(=O)C(C)C)CC3)ncnc12", "inhibition": 0.7538}
{"smiles": "CC(c1ncc(C(C)(C)C)o1)N1CCN(Cc2ccco2)CC1", "stereo": "stereo unspecified", "inhibition": 5.442}
{"smiles": "COc1nn(C)c2c1CCCN(S(=O)(=O)c1ccccc1F)C2", "inhibition": 4.467}
{"smiles": "N#Cc1cn[nH]c1NCc1cc(I)cc(I)c1O", "inhibition": 12.91}
{"smiles": "Cn1cccc1C(=O)NCc1cn2c(n1)CN(S(=O)(=O)C1CC1)CC2", "inhibition": 15.38}
{"smiles": "Cc1nccc(-c2cccc(NCC(=O)N3CCCCCCC3)c2)n1", "inhibition": 11.02}
{"smiles": "Cc1ccsc1CN(CCN(C)C)C(=O)c1ccccc1C#N", "inhibition": 5.155}
{"smiles": "COc1ccc(N(Cc2ccco2)C(=O)C2CCCO2)cc1F", "stereo": "stereo unspecified", "inhibition": 12.78}
{"smiles": "CO[C@@H]1CC[C@H]2[C@H]1OCCN2Cc1ccc(F)cc1", "inhibition": 16.71}
{"smiles": "CCn1cnnc1C1CCN(C(=O)c2cnc3ccccc3n2)CC1", "inhibition": 11.27}
{"smiles": "Cc1noc(CN2C[C@H]3CC[C@@H]2CN(C2Cc4ccccc4C2)C3)n1", "inhibition": 10.62}
{"smiles": "CN1CC(=O)N(c2ccccc2)CC12CCN(CC1CCOCC1)C2", "stereo": "stereo unspecified", "inhibition": 9.375}
{"smiles": "COc1ccc(C(=O)NCCCNc2ccc(C(F)(F)F)cn2)cc1", "inhibition": 18.95}
{"smiles": "Cc1nn(C)c2c(NCc3ccccn3)ncnc12", "inhibition": 23.08}
{"smiles": "Cc1ccccc1-c1cc(NC(=O)NC2CC2)n(CCO)n1", "inhibition": 8.934}
{"smiles": "Cc1ccc(-c2ccc(Cl)nn2)cc1S(N)(=O)=O", "inhibition": 10.08}
{"smiles": "CNC(=O)CCc1cc(C)nc(C2CCN(c3cnccn3)CC2)c1", "inhibition": 8.1}
{"smiles": "CNc1ncccc1C(=O)N1CCCC2(C1)C(=O)N(C)c1ccccc12", "stereo": "stereo unspecified", "inhibition": 15.76}
{"smiles": "CCS(=O)(=O)CCSc1ccc(Cl)cc1", "inhibition": 16.33}
{"smiles": "O=C(C1CCOCC1)N1CCC(O)(Cn2ccc3ccncc32)CC1", "inhibition": 13.59}
{"smiles": "NC(=O)C1CCN(C(=O)CCCc2ccc(Cl)c(Cl)c2)CC1", "inhibition": 15.96}
{"smiles": "Cc1ccc(C(=O)NCCC2CN(c3cnn(C)c(=O)c3)CCO2)s1", "stereo": "stereo unspecified", "inhibition": 10.03}

For reference, 5 entries once more:

SMILES,inhibition
COc1ccc(N(Cc2ccco2)C(=O)C2CCCO2)cc1F (stereo unspecified),12.78%
CC[C@H]1CN2CC[C@H]1C[C@@H]2CNC(=O)Nc1cccc(C(F)(F)F)c1,11.54%
CC(c1ncc(C(C)(C)C)o1)N1CCN(Cc2ccco2)CC1 (stereo unspecified),5.442%
Cc1ccc(C(=O)NCCC2CN(c3cnn(C)c(=O)c3)CCO2)s1 (stereo unspecified),10.03%
COc1ccc(C(=O)NCCCNc2ccc(C(F)(F)F)cn2)cc1,18.95%

The values are deposited in ChEMBL (CHEMBL3988442, “University of Dundee, Small-Polar-MMV Screening Library” (2021)).